Patent US10130830B2, “Preservative systems comprising cationic surfactants” (Laboratorios Miret, S.A., priority 2005, dated 2018)
Several values for one entry are separate records, joined by “and”; a condition that tells them apart may be missing. Identical values can stand only once. Further values from the same series stand in other lists.

Tests used:
Assay type in all cases: cell-based
aerobic total count [1] = assay: Preservative action in soaked chickpeas, aerobic total count; details: Example 13, soaked chickpeas, LAE 0.2 g/kg in soaking water, samples 1-3
Method: (4) Determination of Preservative Action in Soaked Chick-peas.
Chickpeas are the principal ingredients in a lot of ready-to-eat meals. Before cooking them, chickpeas have to be soaked in water at room temperature for 24 hours. During this period, fermentation processes may occur and therefore, chickpeas would not be suitable for eating. The soaking process cannot be made at refrigeration temperatures, because the structure of the chickpeas could be damaged.
• 1. Chickpeas were soaked in water for 24 hours at 30° C. and 50% HR (in treated samples preservative was added at this point); and • 2. after 24 hours the chickpeas were strained. Analysis • Samples were analysed (aerobic total count and concentration of the cationic surfactant) by triplicate for 24 hours. • Aerobic total count was analysed by stomaching 25 g of chickpeas in 225 g of buffered peptone water. Dilutions were made in buffered peptone water. Tryptone Soya Agar was harvested with each dilution and incubated at 35° C. for 48 hours. • Average values in log cfu/g of three samples per treatment and day of analysis were calculated. • LAE was analysed by HPLC using an internally validated method.

aerobic total count [2] = assay: Preservative action in cooked chicken breast, aerobic total count
Method: (2) Determination of Preservative Action in Chicken Breast. Process of Preparation • 1. Fresh chicken breast was diced to pieces • 2. Brine (8.70% sodium chloride and 4.35% tripolyphosphate in water) was added to the fresh chicken in an amount of 11.5 g brine per 88.5 g meat in the control preparation and 11.5 g brine and 88.4 g meat in the preparations treated with preservative. • 3. Brine and meat were mixed during 15 minutes, in the preparations treated with preservative the preservative was added after 14 minutes in an amount of 0.2 g/kg. • 4. Vacuum refrigerate tumbling was made during 30 minutes. • 5. Samples were vacuum-packed in sterile bags and they were cooked at 85° C. for 30 minutes. • 6. The cooked chicken was refrigerated at 4° C. • 7. The cooked chicken was diced in irregular shapes. • 8. Then, the nuggets were stored at 10° C. in sterile vacuum-packed bags. Analysis […] Dilutions were made in buffered peptone water. Tryptone Soya Agar was harvested with each dilution and incubated at 35° C. for 48 hours. The mean value in log cfu/g of three samples per treatment and day of analysis was calculated.

aerobic total count [3] = assay: Preservative action in bratwurst sausage, aerobic total count; details: Example 11, bratwurst sausage, LAE 0.2 g/kg
Method: (3) Determination of Preservative Action in Bratwurst Sausage.
The ingredients for all samples were : minced pork back, underbelly, spices, salt and additives (milk protein, diphosphate, antioxidant (E-300) and flavour enhance (E-621)).
1. On the cutter the minced pork back meat was ground and the ingredients were added in this order: the additives (except the preservative system), the underbelly, the spices and the preservative system (such as the cationic surfactant alone or in combination with other products). Ice was also added for controlling the temperature (maximum 5° C.) of the meat. The mixing time was 12 minutes.
2. The mass was vacuum mixed (92%) for 1 minute.
3. The mixture was stuffed into natural casings. The casings were previously soaked in a salted water solution for 30 minutes.
4. The bratwurst sausages were put in a cooking trolley. Cooking took place in a oven at 80° C. for 1 hour.
5. After cooking, the bratwurst sausages were sprayed with cool water for 5 minutes and put in a cold-storage room (0-5° C., 24 hours).
6. The next day, bratwurst sausages were packed (each packed contained five sausages) and pasteurised at 80° C. for 30 minutes and then. After, they were soaked in cool water for 30 minutes.
7. Finally, the bratwurst sausages were labelled and stored at 5° C. for 90 days.
Samples were analysed (aerobic total count) for up to 90 days. Aerobic total count was analysed by stomaching 25 g of sausage in 225 g of buffered peptone water. Dilutions were made in buffered peptone water. Tryptone Soya Agar was harvested with each dilution and incubated at 35° C. for 48 hours.
Average values in log cfu/g of three samples per treatment and day of analysis were calculated.

Compound: CCCCCCCCCCCC(=O)N[C@@H](CCCN=C(N)N)C(=O)OCC.Cl [LAE, ethyl ester of the lauramide of the arginine monohydrochloride]
- aerobic total count (aerobic total count [1]; 0 hours): 2.0 log cfu/g
- aerobic total count (aerobic total count [1]; 4 hours): 2.0 log cfu/g
- aerobic total count (aerobic total count [1]; 8 hours): 2.7 log cfu/g
- aerobic total count (aerobic total count [1]; 8 hours, monohydrochloride): 2.6 log cfu/g and 2.3 log cfu/g
- aerobic total count (aerobic total count [1]; 16 hours, monohydrochloride): 3.9 log cfu/g and 3.6 log cfu/g
- aerobic total count (aerobic total count [1]; 24 hours, monohydrochloride): 4.2 log cfu/g and 4.5 log cfu/g and 4.1 log cfu/g
- aerobic total count (aerobic total count [2]; Example 14, cooked chicken, LAE 0.2 g/kg, day 0, samples 1-3): 2.0 log cfu/g
- aerobic total count (aerobic total count [2]; Example 14, cooked chicken, LAE 0.2 g/kg, day 56, samples 1-3, monohydrochloride): 5.6 log cfu/g and 6.0 log cfu/g
- aerobic total count (aerobic total count [2]; Example 16, cooked chicken, 0.20 g of LAE/kg, day 0, samples 1-3): 2.0 log cfu/g
- aerobic total count (aerobic total count [2]; Example 16, cooked chicken, 0.20 g of LAE/kg, day 7, samples 1-3): 2.0 log cfu/g
- aerobic total count (aerobic total count [2]; Example 16, cooked chicken, 0.20 g of LAE/kg, day 14, samples 1-3): 2.4 log cfu/g
- aerobic total count (aerobic total count [2]; Example 16, cooked chicken, 0.20 g of LAE/kg, day 14, samples 1-3, monohydrochloride): 2.2 log cfu/g and 2.1 log cfu/g
- aerobic total count (aerobic total count [2]; Example 16, cooked chicken, 0.20 g of LAE/kg, day 21, samples 1-3, monohydrochloride): 2.7 log cfu/g and 2.6 log cfu/g and 3.1 log cfu/g
- aerobic total count (aerobic total count [2]; Example 16, cooked chicken, 0.20 g of LAE/kg, day 28, samples 1-3, monohydrochloride): 2.9 log cfu/g and 3.2 log cfu/g and 3.4 log cfu/g
- aerobic total count (aerobic total count [2]; Example 16, cooked chicken, 0.20 g of LAE/kg, day 35, samples 1-3, monohydrochloride): 3.4 log cfu/g and 3.7 log cfu/g
- aerobic total count (aerobic total count [2]; Example 16, cooked chicken, 0.20 g of LAE/kg, day 42, samples 1-3, monohydrochloride): 4.5 log cfu/g and 4.3 log cfu/g and 4.1 log cfu/g
- aerobic total count (aerobic total count [2]; Example 16, cooked chicken, 0.20 g of LAE/kg, day 49, samples 1-3, monohydrochloride): 5.0 log cfu/g and 4.7 log cfu/g and 5.1 log cfu/g
- aerobic total count (aerobic total count [2]; Example 16, cooked chicken, 0.20 g of LAE/kg, day 56, samples 1-3, monohydrochloride): 5.6 log cfu/g and 5.4 log cfu/g
- aerobic total count (aerobic total count [2]; Example 18, cooked chicken, 0.2 g of LAE/kg, day 0, samples 1-3): 2.0 log cfu/g
- aerobic total count (aerobic total count [2]; Example 18, cooked chicken, 0.2 g of LAE/kg, day 7, samples 1-3): 2.0 log cfu/g
- aerobic total count (aerobic total count [2]; Example 18, cooked chicken, 0.2 g of LAE/kg, day 14, samples 1-3): 2.4 log cfu/g
- aerobic total count (aerobic total count [2]; Example 18, cooked chicken, 0.2 g of LAE/kg, day 14, samples 1-3, monohydrochloride): 2.2 log cfu/g and 2.6 log cfu/g
- aerobic total count (aerobic total count [2]; Example 18, cooked chicken, 0.2 g of LAE/kg, day 21, samples 1-3, monohydrochloride): 3.0 log cfu/g and 2.7 log cfu/g and 3.1 log cfu/g
- aerobic total count (aerobic total count [2]; Example 18, cooked chicken, 0.2 g of LAE/kg, day 28, samples 1-3): 3.4 log cfu/g
- aerobic total count (aerobic total count [2]; Example 18, cooked chicken, 0.2 g of LAE/kg, day 28, samples 1-3, monohydrochloride): 3.3 log cfu/g and 3.5 log cfu/g
- aerobic total count (aerobic total count [2]; Example 18, cooked chicken, 0.2 g of LAE/kg, day 35, samples 1-3, monohydrochloride): 3.6 log cfu/g and 3.7 log cfu/g
- aerobic total count (aerobic total count [2]; Example 18, cooked chicken, 0.2 g of LAE/kg, day 42, samples 1-3, monohydrochloride): 4.3 log cfu/g and 4.0 log cfu/g and 3.9 log cfu/g
- aerobic total count (aerobic total count [2]; Example 18, cooked chicken, 0.2 g of LAE/kg, day 49, samples 1-3, monohydrochloride): 5.3 log cfu/g and 5.0 log cfu/g and 5.2 log cfu/g
- aerobic total count (aerobic total count [2]; Example 18, cooked chicken, 0.2 g of LAE/kg, day 56, samples 1-3, monohydrochloride): 5.8 log cfu/g and 5.4 log cfu/g and 5.9 log cfu/g
- aerobic total count (aerobic total count [3]; day 0, samples 1-3): 2.0 log cfu/g
- aerobic total count (aerobic total count [3]; day 15, samples 1-3): 2.0 log cfu/g
- aerobic total count (aerobic total count [3]; day 30, samples 1-3, monohydrochloride): 2.3 log cfu/g and 2.5 log cfu/g
- aerobic total count (aerobic total count [3]; day 45, samples 1-3): 2.9 log cfu/g
- aerobic total count (aerobic total count [3]; day 45, samples 1-3, monohydrochloride): 2.5 log cfu/g and 3.0 log cfu/g
- aerobic total count (aerobic total count [3]; day 60, samples 1-3): 3.6 log cfu/g
- aerobic total count (aerobic total count [3]; day 60, samples 1-3, monohydrochloride): 3.3 log cfu/g and 3.2 log cfu/g
- aerobic total count (aerobic total count [3]; day 75, samples 1-3, monohydrochloride): 3.9 log cfu/g and 3.6 log cfu/g
- aerobic total count (aerobic total count [3]; day 90, samples 1-3, monohydrochloride): 4.2 log cfu/g and 4.1 log cfu/g and 4.4 log cfu/g
